The record followed here is PMC7819943, “Rice protein-binding microarrays: a tool to detect cis-acting elements near promoter regions in rice”.

Sequences of proteins named here, by UniProt entry; tags and fusion partners are left off.
UniProt Q0JBA9, entry or part of it: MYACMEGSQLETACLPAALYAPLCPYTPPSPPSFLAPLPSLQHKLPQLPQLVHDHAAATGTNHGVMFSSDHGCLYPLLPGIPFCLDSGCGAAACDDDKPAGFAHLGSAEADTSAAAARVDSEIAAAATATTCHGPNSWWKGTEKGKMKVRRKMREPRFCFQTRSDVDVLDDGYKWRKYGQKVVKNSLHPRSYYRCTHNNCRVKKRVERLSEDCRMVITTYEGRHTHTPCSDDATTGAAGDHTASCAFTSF

Some of the results follow.

The assay deals with OsWRKY34 (Oryza sativa, UniProt Q0JBA9 1-250). Kind of assay: protein-binding microarray (RPBM); PBS, 2% BSA, 51.3 ng/ul salmon testes DNA, 50 uM zinc acetate, 200 nM TF, 25 C, 1 h; high values mean tight binding. The conditions noted are these: protein: recombinant; tags: N-terminal polyhistidine and DsRed monomer fusion (pET32a); label: CyDye5-dUTP incorporated in the synthesized complementary strand; 3' TTTTT single-stranded linker to array surface; dsDNA, one strand shown. A digest of the protocol:
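Transcription factors were made in E. coli BL21-CodonPlus as N-terminal fusions to a polyhistidine tag and DsRed, then purified on Ni–NTA. After primer extension with Cy5-dUTP and blocking with 2% BSA, a custom Agilent array was exposed for 1 h at 25 °C to 200 nM protein in PBS, 2% BSA, salmon testes DNA and 50 µM zinc acetate. Washed arrays were scanned on an Axon 4000B, and the binding signal is per-feature fluorescence intensity in arbitrary units.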
As for “CACTCGCATCACACACGCTCTCTCACTCTCACTCTCACTCCGGAGTCACCTAGTGCAG”, the binding signal is 8580 fluorescence intensity (a.u.).

With “AGATGTTTTGAGGTCGCCCTTGGGTTTATTTGGCGCCACACGGAGTCACCTAGTGCAG”, the binding signal is 8060 fluorescence intensity (a.u.).

As to “AACAAACTTCCAACTTTTCCGTCACATCGTTTCAATTTCACGGAGTCACCTAGTGCAG”, the binding signal is 9480 fluorescence intensity (a.u.).

As to “ACAATGTGACCCTATGTACAATTTACTCATATATTTTTATCGGAGTCACCTAGTGCAG”, the binding signal is 9570 fluorescence intensity (a.u.).

With “AATCGCATCGCGCCGCTTTTGCTCCTCCGTCTCTCTCTCGCGGAGTCACCTAGTGCAG”, the binding signal was 8420 fluorescence intensity (a.u.).

Regarding “CCACAACCTCTCTCACCACCCTGTCATCTGCACCACTGTCCGGAGTCACCTAGTGCAG”, the binding signal was 8230 fluorescence intensity (a.u.).

Take “TTTCATATTAATCTATGTTGTCAATTTTTTTCATATTTTTCGGAGTCACCTAGTGCAG”: the binding signal was 9540 fluorescence intensity (a.u.).

Regarding “ATTGAGACCACTTGTTCTGTGCCACTTCCATTTCATGTACCGGAGTCACCTAGTGCAG”, the binding signal is 9240 fluorescence intensity (a.u.).

“TCCACATGTCTATCTTACATATTTTCTTGGTTCCTGTGCTCGGAGTCACCTAGTGCAG”: the binding signal was 10000 fluorescence intensity (a.u.).

As for “GGTTTGTTTGACCCAACACTGTTTTTCCGGAATCCAGGTGCGGAGTCACCTAGTGCAG”, the binding signal is 8280 fluorescence intensity (a.u.).

Regarding “GGGGTCGGGGTGGGAGAGGGAGGCTACACTACAGCAGCAGCGGAGTCACCTAGTGCAG”, the binding signal is 11100 fluorescence intensity (a.u.).

On to “TTCGTCCTTTAATTGCTTTCCTGTTGCCAGCTTGCTTTATCGGAGTCACCTAGTGCAG”, for which the binding signal was 9830 fluorescence intensity (a.u.).

Take “ACTCAGCACGGCATCCGCCGCTCTACTCCTGGACCGACCGCGGAGTCACCTAGTGCAG”: the binding signal was 8320 fluorescence intensity (a.u.).

With “AACTTAAATTTGTTATTCCCCGGCTCTTAGTCGGCACAAACGGAGTCACCTAGTGCAG”, the binding signal is 8210 fluorescence intensity (a.u.).

Take “CTTTTTTTTGTTTTTGACCTATTGTACATTCCGTTTCCAGCGGAGTCACCTAGTGCAG”: the binding signal is 8310 fluorescence intensity (a.u.).

As to “ATATACGTACTCCCTGTGTTCTATAATAAGTTTATTTTTACGGAGTCACCTAGTGCAG”, the binding signal was 8810 fluorescence intensity (a.u.).

As for “CACTACCGGATCCGTGGCCACTATGCGTGGGGAGGGCGGTCGGAGTCACCTAGTGCAG”, the binding signal was 9030 fluorescence intensity (a.u.).

As to “CAGTTAGACTTTTCCCTGACTTTTAGCATCAGTTCCTCGCCGGAGTCACCTAGTGCAG”, the binding signal was 8560 fluorescence intensity (a.u.).

Regarding “TTCTGGTTCTTTATGTTAGGTGTGGTTGAGCCTTATATTTCGGAGTCACCTAGTGCAG”, the binding signal is 8600 fluorescence intensity (a.u.).

Regarding “TAACCTTTTCTTTCTTGTTACTTGTTTTTTTTTTCTTCTTCGGAGTCACCTAGTGCAG”, the binding signal is 9700 fluorescence intensity (a.u.).

For “GTCACGCACTGAAACTTGTCCCCTTTTACCCCATCTCTTTCGGAGTCACCTAGTGCAG”, the binding signal is 9590 fluorescence intensity (a.u.).

As for “CTTCGCCATGGCCACCGGTGCCCGCCTCTCTCCTATCCCCCGGAGTCACCTAGTGCAG”, the binding signal is 9240 fluorescence intensity (a.u.).

On to “CTCTCCGTCGAGGAGCATTGTACGACTACCTGTGGCTCCGCGGAGTCACCTAGTGCAG”, for which the binding signal is 8450 fluorescence intensity (a.u.).

With “CAACCCCATCAAACTAATTGTTAGTATTTCTTTTAGTCCTCGGAGTCACCTAGTGCAG”, the binding signal was 8160 fluorescence intensity (a.u.).

As to “CGGTTCTTTTTTCATTAAGATGCAGATTTTATCTCGGTTTCGGAGTCACCTAGTGCAG”, the binding signal is 9420 fluorescence intensity (a.u.).

Turning to “CCAAATCCACAGCTGAATCAAACGCACACCACACAGTCTACGGAGTCACCTAGTGCAG”, the binding signal is 8820 fluorescence intensity (a.u.).

As to “ACTGCTCTTTCCCCTGCTCCAAGTATTTCTCTCTCGTTCTCGGAGTCACCTAGTGCAG”, the binding signal was 11300 fluorescence intensity (a.u.).

As for “TCCAGCCCAAACACATTCCAACACCGCAATTCTACATTATCGGAGTCACCTAGTGCAG”, the binding signal is 9260 fluorescence intensity (a.u.).

Turning to “CGTTTGCACTCTGCTCCACTTGGTATTATCAGTTTTTGTTCGGAGTCACCTAGTGCAG”, the binding signal was 9420 fluorescence intensity (a.u.).

As to “CTGCAGCTATCGATTTCACTCTCCATTCGACTTCAATCAACGGAGTCACCTAGTGCAG”, the binding signal was 10200 fluorescence intensity (a.u.).

With “GTGTGAACCAGAATATTTCGCCCTAATCATCAGTTTTCCACGGAGTCACCTAGTGCAG”, the binding signal was 9050 fluorescence intensity (a.u.).

Consider “TTGCTCGTATTTTCTCCCCAAAGTCATCAACTTTGATGCTCGGAGTCACCTAGTGCAG”, for which the binding signal is 19000 fluorescence intensity (a.u.).

As to “AGGTATCGTGATGGTGGTAACAATGGTTCAAATTTTATAACGGAGTCACCTAGTGCAG”, the binding signal is 8350 fluorescence intensity (a.u.).

Regarding “GCTTGATGTCGTACTACGTAGATCCTCGTACCAACGTACCCGGAGTCACCTAGTGCAG”, the binding signal is 8950 fluorescence intensity (a.u.).

For “CTTGCGAGTTGTTCGCCTCTTGTTCTGCTTCTACCTATCACGGAGTCACCTAGTGCAG”, the binding signal is 14000 fluorescence intensity (a.u.).

For the sequence “TCTGGGTATCCTCTGTTATGTCATCTTCACCTCCATTTGGCGGAGTCACCTAGTGCAG”, the binding signal is 8690 fluorescence intensity (a.u.).

Regarding “CTCAATTTTTCGTCGTCATCAGCATCGAATCCGTCCTCCGCGGAGTCACCTAGTGCAG”, the binding signal was 11000 fluorescence intensity (a.u.).

On to “TGCGGGTTGTTTTGATTGACAATTTAGTGTTGGTGTTGTTCGGAGTCACCTAGTGCAG”, for which the binding signal is 9980 fluorescence intensity (a.u.).

“CATTACCGCCACCTTCGATGCCGCCGCCTGCCGCTACCCGCGGAGTCACCTAGTGCAG”: the binding signal was 8580 fluorescence intensity (a.u.).

For the sequence “GCCCACTTGTATATCTCCCGCGCGCCACCACCACCATCGCCGGAGTCACCTAGTGCAG”, the binding signal was 12600 fluorescence intensity (a.u.).

Regarding “CCAACTTTTCCGTCACATCGTTTCAATTTTAACCAAACTTCGGAGTCACCTAGTGCAG”, the binding signal was 8170 fluorescence intensity (a.u.).

“TCACATTGTTCCTTTCCTCCAATGTTTTGTTTCATCAACTCGGAGTCACCTAGTGCAG”: the binding signal is 8350 fluorescence intensity (a.u.).
